Data taken from PMC4109008.

Sequences of proteins named here, by UniProt entry; tags and fusion partners are left off. A change or cut given only in a name is not applied to a line headed by its entry.
UniProt P0A9X4: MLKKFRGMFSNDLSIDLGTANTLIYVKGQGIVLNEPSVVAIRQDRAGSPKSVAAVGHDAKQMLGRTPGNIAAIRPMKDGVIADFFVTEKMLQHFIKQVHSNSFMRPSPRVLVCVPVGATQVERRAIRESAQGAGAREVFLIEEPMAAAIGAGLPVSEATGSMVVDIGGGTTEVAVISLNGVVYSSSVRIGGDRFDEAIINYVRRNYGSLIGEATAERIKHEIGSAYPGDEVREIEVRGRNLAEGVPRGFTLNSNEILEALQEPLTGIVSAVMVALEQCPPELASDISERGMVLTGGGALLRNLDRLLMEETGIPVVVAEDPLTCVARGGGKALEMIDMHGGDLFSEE
UniProt P0CE47: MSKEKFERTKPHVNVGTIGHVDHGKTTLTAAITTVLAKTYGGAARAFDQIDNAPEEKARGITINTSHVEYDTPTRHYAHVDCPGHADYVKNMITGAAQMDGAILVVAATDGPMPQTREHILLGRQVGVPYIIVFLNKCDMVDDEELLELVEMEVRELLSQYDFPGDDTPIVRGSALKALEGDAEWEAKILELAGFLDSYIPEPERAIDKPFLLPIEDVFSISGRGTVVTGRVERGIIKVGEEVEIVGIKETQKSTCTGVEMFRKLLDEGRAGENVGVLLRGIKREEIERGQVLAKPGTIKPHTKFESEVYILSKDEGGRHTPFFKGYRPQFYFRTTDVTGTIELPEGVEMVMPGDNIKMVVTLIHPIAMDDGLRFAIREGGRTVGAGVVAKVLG

Target: Snap-tagged MreB (E. coli) (UniProt P0A9X4)
Test: pull-down; cleared lysate of the Snap-tagged MreB E. coli strain incubated for different times with Snap capture beads; EF-Tu detected by western blotting with an EF-Tu antibody

In the case of EF-Tu (from UniProt P0CE47), the binding is reported as “binds”.

Results are given in words; binding and its absence hold for the method and conditions named. In cells and extracts the contact can be indirect. A result given as binding can be weak or reduced; the word gives no strength.
